According to patent US4382935A, “Analgesic drug containing a derivative of benzylpiperazine” (Buzas; Andre, priority 1980, dated 1983):

Target: morphine-compound cerebral receptors
Assay: Fixation on morphine-compound cerebral receptors (displacement of tritiated etorphin)
Format: binding
Conditions: rat-brain homogenate, 1 mg/ml protein, 30 minutes at 35° C; read-out: CI50 (displacement of tritiated etorphin)
Protocol: It is sought to determine the affinity of the products under study by means of their capacity for displacement of tritiated etorphin in a rat-brain homogenate (containing 1 mg/ml of protein) over a period of 30 minutes at 35° C. This test consists in determining the value CI50 corresponding to the concentration of products which are capable of inhibiting 50% of the specific radioactive ligand bond.

CN1CC[C@]23c4c5ccc(O)c4O[C@H]2[C@@H](O)C=C[C@H]3[C@H]1C5 [morphine]
IC50: 0.179 µM
